First the molecules themselves.
T1: N-terminal portion of Gsdma3 (A.A. 1-227) (mouse) (UniProt Q5Y4Y6)
T1 sequence: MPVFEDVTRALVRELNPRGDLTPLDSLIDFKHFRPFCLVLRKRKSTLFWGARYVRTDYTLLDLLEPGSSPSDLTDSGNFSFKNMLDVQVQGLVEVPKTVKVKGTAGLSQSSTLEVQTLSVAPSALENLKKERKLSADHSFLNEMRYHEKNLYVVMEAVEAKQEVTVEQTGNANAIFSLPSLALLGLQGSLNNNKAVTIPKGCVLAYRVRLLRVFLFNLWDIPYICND

By UniProt entry, the sequences of proteins in these tests, tags left out. Residues count along the entry.
UniProt P38646, residues 47-679: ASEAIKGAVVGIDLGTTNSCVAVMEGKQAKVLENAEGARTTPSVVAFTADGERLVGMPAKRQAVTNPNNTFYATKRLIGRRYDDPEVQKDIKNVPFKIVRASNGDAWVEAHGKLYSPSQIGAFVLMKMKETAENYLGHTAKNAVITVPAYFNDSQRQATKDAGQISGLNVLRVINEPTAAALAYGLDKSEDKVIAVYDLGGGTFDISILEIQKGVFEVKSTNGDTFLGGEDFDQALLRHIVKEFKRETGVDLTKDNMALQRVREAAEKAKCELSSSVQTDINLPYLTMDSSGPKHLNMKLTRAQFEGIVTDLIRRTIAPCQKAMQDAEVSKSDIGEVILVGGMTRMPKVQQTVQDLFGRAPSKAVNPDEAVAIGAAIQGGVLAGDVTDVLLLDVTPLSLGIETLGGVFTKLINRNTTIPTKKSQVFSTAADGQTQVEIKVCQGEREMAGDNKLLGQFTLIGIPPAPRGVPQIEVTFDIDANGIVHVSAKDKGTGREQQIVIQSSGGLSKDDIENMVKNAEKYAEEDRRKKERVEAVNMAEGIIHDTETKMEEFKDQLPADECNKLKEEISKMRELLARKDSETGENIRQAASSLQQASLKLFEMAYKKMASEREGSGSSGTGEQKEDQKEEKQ
UniProt P0DMV8: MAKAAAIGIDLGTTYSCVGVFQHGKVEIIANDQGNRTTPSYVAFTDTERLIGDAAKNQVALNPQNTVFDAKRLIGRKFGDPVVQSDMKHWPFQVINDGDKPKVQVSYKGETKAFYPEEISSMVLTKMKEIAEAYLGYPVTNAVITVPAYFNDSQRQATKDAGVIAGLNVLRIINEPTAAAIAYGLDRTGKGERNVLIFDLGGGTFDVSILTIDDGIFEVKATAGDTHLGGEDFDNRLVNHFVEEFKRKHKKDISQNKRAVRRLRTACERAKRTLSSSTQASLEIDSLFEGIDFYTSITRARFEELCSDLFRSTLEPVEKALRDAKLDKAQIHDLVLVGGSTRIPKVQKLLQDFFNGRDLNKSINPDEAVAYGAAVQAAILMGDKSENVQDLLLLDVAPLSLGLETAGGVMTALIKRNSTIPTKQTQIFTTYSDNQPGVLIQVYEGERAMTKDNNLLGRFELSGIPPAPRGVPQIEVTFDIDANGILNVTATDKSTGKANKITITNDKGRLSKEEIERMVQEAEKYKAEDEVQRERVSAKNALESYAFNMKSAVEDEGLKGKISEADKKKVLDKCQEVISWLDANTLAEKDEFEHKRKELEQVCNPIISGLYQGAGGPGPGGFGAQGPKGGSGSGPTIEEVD
UniProt P08238: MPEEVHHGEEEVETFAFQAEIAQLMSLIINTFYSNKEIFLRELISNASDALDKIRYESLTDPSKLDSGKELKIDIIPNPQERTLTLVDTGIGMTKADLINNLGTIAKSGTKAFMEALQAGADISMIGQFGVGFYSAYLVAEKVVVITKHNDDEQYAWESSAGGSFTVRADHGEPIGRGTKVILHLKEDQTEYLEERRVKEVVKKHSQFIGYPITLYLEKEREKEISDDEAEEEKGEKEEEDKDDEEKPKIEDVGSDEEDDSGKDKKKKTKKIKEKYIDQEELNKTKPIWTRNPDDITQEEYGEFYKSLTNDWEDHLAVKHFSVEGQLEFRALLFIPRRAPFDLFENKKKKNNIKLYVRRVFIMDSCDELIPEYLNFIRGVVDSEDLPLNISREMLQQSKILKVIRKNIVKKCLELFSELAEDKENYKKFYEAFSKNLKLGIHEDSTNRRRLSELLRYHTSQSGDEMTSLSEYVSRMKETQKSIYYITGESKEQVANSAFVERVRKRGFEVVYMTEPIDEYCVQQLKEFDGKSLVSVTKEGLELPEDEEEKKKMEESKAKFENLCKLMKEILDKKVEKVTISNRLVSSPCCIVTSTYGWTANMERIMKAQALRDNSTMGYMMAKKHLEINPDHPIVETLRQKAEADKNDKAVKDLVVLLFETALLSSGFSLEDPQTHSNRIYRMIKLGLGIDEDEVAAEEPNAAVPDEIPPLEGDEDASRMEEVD

B1: TNF receptor-associated protein 1 (protein, UniProt Q12931 60-704)
chain: STQTAEDKEEPLHSIISSTESVQGSTSKHEFQAETKKLLDIVARSLYSEKEVFIRELISNASDALEKLRHKLVSDGQALPEMEIHLQTNAEKGTITIQDTGIGMTQEELVSNLGTIARSGSKAFLDALQNQAEASSKIIGQFGVGFYSAFMVADRVEVYSRSAAPGSLGYQWLSDGSGVFEIAEASGVRTGTKIIIHLKSDCKEFSSEARVRDVVTKYSNFVSFPLYLNGRRMNTLQAIWMMDPKDVREWQHEEFYRYVAQAHDKPRYTLHYKTDAPLNIRSIFYVPDMKPSMFDVSRELGSSVALYSRKVLIQTKATDILPKWLRFIRGVVDSEDIPLNLSRELLQESALIRKLRDVLQQRLIKFFIDQSKKDAEKYAKFFEDYGLFMREGIVTATEQEVKEDIAKLLRYESSALPSGQLTSLSEYASRMRAGTRNIYYLCAPNRHLAEHSPYYEAMKKKDTEVLFCFEQFDELTLLHLREFDKKKLISVETDIVVDHYKEEKFEDRSPAAECLSEKETEELMAWMRNVLGSRVTNVKVTLRLDTHPAMVTVLEMGAARHFLRMQQLAKTQEERAQLLQPTLEINPRHALIKKLNQLRASEPGLAQLLVDQIYENAMIAAGLVDDPRAMVGRLNELLVKALERH

No constants are given. Whether binding was seen depends on the method and setting. Binding seen in cells or lysates may run through a third protein. A yes stands for co-enrichment or nearness to the bait. Other partners may have been found.

For the assay, the target named is T1, N-terminal portion of Gsdma3 (A.A. 1-227) (mouse). The assay can be described thus: affinity purification with mass spectrometry; anti-flag immunoprecipitation from transfected HEK293T cells, SDS-PAGE, silver staining; unique bands Gel1 (approximately 100 kDa) and Gel2 (approximately 70 kDa) excised, nanoLC-MS/MS, Mascot search of human UniProt.
In the case of Grp75 (from UniProt P38646 47-679), the binding result is recorded as “binds”.
Take Hsp70 1A (from UniProt P0DMV8 1-641): the binding result is recorded as “binds”.
Under Hsp90α (from UniProt P07900 1-732) stands “binds”; under Hsp90β (from UniProt P08238 1-724), “binds”.
Then “Stress-induced-phosphoprotein 1 (from UniProt P31948 1-543)”, with “binds”; and B1, with “binds”.
